Measured values from the supplement of paper PMC10849652.
The list shows a part of the results.

Amino acid sequences for entries named in this document (tags omitted). A change or cut given only in a name is not applied to a line headed by its entry.
UniProt Q13442: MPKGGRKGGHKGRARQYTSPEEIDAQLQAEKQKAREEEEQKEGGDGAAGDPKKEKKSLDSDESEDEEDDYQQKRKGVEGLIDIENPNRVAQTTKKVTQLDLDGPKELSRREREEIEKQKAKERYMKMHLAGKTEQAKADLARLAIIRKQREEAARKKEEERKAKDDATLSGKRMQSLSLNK
UniProt Q96GD0: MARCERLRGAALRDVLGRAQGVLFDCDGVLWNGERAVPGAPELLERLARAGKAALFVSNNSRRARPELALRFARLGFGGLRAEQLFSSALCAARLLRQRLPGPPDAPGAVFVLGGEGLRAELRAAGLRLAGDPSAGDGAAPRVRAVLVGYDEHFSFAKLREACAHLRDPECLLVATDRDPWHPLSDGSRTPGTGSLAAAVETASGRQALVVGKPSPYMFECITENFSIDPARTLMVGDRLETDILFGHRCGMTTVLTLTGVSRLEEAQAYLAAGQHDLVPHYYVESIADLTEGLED
UniProt Q14690: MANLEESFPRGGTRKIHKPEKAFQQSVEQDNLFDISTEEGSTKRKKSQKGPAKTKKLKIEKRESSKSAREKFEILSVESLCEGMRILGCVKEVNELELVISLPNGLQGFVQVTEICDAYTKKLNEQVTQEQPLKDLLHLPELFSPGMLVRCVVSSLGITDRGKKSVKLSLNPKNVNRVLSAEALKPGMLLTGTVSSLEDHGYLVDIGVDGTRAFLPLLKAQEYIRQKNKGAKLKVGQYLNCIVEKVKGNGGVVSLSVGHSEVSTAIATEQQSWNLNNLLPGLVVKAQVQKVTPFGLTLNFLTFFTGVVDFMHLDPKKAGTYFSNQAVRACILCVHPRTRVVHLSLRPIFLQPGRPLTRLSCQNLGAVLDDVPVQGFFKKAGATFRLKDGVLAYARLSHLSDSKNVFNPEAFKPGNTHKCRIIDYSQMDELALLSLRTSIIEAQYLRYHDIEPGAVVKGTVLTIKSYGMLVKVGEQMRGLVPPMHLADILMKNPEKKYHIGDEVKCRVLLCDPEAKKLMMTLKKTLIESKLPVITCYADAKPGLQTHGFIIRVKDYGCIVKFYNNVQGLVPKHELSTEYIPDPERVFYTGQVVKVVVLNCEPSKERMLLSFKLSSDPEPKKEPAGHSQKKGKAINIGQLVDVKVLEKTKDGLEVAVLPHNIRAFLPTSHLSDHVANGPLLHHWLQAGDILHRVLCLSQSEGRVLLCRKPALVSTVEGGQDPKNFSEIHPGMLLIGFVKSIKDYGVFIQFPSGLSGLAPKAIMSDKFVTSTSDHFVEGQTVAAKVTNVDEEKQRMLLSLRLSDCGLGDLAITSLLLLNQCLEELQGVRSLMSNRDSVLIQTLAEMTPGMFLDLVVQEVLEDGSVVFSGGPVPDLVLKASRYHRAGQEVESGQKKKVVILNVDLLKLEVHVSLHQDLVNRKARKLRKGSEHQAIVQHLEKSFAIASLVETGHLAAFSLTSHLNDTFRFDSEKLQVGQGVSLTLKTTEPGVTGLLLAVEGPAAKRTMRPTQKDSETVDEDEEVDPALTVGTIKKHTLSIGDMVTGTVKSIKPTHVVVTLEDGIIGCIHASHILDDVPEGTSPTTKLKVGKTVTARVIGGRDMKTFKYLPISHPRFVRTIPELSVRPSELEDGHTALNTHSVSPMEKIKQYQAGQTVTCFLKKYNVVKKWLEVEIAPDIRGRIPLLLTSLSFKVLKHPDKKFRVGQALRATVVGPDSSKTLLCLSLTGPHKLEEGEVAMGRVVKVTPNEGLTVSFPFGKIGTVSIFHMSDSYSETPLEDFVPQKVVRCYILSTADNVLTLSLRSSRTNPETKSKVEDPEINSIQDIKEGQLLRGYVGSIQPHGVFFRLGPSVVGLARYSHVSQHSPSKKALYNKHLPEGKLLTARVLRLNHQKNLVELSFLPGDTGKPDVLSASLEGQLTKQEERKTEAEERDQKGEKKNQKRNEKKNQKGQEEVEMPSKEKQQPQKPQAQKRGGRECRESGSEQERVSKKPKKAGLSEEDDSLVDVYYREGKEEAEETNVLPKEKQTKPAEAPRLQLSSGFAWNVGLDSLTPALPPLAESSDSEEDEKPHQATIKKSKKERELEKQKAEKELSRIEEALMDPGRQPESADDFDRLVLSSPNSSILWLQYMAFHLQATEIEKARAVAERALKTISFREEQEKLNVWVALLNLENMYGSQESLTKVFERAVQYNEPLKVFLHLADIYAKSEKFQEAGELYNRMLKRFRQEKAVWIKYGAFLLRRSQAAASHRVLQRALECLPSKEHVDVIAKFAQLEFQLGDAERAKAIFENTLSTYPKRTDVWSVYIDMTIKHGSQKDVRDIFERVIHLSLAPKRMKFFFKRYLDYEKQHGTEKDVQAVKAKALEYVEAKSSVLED
UniProt Q13371: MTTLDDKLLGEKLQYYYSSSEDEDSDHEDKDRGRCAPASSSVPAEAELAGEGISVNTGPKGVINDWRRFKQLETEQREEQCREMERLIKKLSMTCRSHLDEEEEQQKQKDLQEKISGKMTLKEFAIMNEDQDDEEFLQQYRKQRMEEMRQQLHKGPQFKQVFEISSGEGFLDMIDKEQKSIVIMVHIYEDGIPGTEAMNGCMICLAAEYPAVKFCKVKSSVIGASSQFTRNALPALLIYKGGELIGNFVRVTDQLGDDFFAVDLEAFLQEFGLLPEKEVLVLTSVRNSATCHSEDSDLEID
UniProt Q9BUH6, whole entry, looked up: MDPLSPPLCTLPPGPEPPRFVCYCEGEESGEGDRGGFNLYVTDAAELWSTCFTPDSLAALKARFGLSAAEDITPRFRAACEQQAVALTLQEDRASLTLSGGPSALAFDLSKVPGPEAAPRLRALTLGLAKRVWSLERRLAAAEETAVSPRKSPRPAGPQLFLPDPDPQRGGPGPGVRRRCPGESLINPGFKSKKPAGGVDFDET
UniProt Q15004: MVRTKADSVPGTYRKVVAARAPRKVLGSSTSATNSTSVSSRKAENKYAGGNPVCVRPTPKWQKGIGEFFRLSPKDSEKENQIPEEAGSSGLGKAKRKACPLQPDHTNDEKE
UniProt Q96HC4: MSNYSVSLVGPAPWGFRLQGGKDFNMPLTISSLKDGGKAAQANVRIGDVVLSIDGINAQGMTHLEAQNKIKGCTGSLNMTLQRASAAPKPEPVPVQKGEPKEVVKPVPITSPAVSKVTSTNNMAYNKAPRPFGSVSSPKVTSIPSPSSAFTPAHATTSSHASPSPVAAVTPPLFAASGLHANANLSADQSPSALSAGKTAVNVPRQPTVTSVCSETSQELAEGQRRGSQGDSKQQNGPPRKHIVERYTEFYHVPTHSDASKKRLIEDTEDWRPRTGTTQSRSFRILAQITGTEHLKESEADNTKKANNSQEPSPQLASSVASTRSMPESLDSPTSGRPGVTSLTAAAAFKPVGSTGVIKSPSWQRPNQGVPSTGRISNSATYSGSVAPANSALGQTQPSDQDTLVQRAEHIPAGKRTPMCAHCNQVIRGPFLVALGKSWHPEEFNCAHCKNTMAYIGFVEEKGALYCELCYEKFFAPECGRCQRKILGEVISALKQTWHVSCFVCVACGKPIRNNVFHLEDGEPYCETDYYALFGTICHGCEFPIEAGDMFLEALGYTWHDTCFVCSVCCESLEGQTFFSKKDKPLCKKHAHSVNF
UniProt Q15154: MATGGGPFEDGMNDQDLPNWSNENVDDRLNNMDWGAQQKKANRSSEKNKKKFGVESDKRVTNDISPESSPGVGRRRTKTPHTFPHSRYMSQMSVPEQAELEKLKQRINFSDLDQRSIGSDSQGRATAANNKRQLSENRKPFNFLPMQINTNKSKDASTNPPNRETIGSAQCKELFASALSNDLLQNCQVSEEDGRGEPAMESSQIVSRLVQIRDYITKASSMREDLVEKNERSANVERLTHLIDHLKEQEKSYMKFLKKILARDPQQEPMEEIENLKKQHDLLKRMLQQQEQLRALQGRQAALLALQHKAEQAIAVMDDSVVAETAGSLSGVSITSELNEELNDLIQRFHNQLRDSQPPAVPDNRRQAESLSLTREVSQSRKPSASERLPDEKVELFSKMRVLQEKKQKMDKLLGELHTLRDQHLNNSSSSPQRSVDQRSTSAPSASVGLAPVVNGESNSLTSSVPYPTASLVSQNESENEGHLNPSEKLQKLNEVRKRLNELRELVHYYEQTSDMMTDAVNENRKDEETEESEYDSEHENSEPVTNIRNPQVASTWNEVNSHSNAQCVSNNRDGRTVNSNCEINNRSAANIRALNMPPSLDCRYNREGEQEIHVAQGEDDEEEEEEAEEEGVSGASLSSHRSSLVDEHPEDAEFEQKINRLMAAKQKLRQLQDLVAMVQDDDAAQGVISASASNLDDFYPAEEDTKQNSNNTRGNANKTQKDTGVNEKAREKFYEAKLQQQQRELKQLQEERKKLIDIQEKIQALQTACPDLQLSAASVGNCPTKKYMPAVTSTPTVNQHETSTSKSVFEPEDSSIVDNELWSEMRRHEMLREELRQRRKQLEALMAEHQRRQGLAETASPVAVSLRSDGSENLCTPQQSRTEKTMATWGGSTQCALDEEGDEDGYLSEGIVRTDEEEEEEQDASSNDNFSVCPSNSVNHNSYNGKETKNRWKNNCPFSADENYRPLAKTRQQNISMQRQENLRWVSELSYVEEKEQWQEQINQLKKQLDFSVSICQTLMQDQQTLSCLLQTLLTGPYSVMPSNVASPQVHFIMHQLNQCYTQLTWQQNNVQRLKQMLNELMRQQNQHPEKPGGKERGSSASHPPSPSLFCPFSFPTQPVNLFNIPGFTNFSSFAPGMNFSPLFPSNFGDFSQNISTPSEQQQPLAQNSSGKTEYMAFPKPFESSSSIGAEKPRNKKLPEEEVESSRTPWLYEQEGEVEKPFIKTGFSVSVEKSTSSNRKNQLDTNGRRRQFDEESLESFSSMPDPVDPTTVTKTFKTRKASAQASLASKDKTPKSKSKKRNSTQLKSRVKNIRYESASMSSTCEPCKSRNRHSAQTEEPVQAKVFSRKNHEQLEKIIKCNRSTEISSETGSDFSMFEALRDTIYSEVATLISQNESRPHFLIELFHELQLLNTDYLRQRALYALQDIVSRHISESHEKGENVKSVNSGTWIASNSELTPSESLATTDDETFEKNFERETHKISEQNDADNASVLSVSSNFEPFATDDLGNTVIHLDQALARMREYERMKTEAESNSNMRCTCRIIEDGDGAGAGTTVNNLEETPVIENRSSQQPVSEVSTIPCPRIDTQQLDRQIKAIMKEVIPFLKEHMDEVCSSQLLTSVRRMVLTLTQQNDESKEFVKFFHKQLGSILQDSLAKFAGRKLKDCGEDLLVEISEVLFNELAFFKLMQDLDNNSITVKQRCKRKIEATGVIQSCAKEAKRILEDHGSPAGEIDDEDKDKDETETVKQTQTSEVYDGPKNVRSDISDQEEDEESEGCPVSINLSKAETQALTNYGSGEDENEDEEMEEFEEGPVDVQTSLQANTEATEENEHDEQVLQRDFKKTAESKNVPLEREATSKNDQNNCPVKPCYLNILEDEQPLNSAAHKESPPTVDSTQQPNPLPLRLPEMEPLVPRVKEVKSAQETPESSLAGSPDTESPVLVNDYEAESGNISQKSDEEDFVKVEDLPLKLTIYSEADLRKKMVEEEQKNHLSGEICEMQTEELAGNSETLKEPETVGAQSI
UniProt Q96GU1: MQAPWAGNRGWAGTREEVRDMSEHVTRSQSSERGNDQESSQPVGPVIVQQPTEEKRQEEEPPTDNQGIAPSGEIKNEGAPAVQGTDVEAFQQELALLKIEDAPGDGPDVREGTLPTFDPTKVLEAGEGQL
UniProt Q13310, whole entry, looked up: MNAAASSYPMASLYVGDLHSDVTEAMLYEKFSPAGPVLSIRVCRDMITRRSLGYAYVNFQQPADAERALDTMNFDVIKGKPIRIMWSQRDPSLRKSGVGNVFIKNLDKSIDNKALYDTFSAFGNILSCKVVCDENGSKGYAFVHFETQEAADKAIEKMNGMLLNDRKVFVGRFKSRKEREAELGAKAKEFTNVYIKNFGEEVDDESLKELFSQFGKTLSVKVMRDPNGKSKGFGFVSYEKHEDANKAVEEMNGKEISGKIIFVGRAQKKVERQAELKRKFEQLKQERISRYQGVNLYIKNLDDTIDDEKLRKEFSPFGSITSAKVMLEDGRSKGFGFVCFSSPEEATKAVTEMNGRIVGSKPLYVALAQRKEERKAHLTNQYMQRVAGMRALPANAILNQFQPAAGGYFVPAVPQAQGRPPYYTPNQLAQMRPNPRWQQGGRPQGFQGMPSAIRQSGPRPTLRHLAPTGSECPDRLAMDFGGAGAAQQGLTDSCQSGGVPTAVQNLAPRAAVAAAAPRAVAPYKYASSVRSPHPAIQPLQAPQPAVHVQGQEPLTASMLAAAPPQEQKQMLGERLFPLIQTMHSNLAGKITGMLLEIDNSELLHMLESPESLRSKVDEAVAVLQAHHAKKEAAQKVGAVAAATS
UniProt Q9BUL8: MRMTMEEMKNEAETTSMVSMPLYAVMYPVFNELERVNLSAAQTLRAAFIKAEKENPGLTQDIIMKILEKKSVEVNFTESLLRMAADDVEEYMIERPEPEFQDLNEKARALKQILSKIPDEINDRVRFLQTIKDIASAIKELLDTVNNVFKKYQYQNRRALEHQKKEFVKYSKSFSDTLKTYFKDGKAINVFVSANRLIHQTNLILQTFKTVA

Assays:
Test in all cases: log2 fold change, soluble protein after heating vs DMSO (PISA); higher = thermal stabilisation; K562 cells, 10 uM, 30 min; active = over 0.2 and 3.5 SD of the protein, either way, in both replicates (recomputed)
[1] = compound: CC1=C(C=C(C=C1)NC(=O)C2=CC(=CC=C2)C(C)(C)C#N)NC3=CC4=C(C=C3)N=CN(C4=O)C
Outline: (§1)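 Soluble protein was defined as the supernatant after 21,000xg for 90 min. It came from K562 cells at 2×10^6 cells/mL given 10 μM compound for 30 min, heated in aliquots for 3 min across 48°C-58°C, pooled, and extracted in PBS with 0.5% NP-40 at 4°C, and was quantified by TMTpro 16plex LC-MS/MS with equalised channel sums. Thermal stability against control samples, from duplicates, is reported as log2 fold change.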

[2] = compound: CC1=C(C=C(C=C1)NC(=O)C2=CC(=CC=C2)N(C)C)NC(=O)C3=CC=C(C=C3)O
Outline: as §1

[3] = compound: CC1=CC=C(C=C1)SC2=C3C=C(SC3=CN=C2)C(=O)N
Outline: as §1

[4] = compound: CC1=NC(=CC=C1)C2=C(N=C(N2)C(C)(C)C)C3=CC4=NC=CN=C4C=C3
Outline: as §1

Nexturastat A = compound: CCCCN(Cc1ccc(C(=O)NO)cc1)C(=O)Nc1ccccc1 [Nexturastat A]
Outline: as §1

vemurafenib = compound: CCCS(=O)(=O)Nc1ccc(F)c(C(=O)c2c[nH]c3ncc(-c4ccc(Cl)cc4)cc23)c1F [vemurafenib]
Outline: as §1

[5] = compound: CCCS(=O)(=O)Nc1ccc(F)c(C(=O)c2c[nH]c3ncc(Cl)cc23)c1F
Outline: as §1

[6] = compound: CCCc1cc(C)[nH]c(=O)c1CNC(=O)c1cc(-c2ccnc(N3CCN(C)CC3)c2)cc2c1cnn2C(C)C
Outline: as §1

givinostat = compound: CCN(CC)Cc1ccc2cc(COC(=O)Nc3ccc(C(=O)NO)cc3)ccc2c1 [givinostat]
Outline: as §1

barasertib = compound: CCN(CCCOc1ccc2c(Nc3cc(CC(=O)Nc4cccc(F)c4)[nH]n3)ncnc2c1)CCOP(=O)(O)O [barasertib]
Outline: as §1

Measured: log2 fold change

PDAP1 (UniProt Q13442)
inactive: [1] 0.018 | [2] 0.022 | [3] -0.007 | [4] 0.057 | Nexturastat A -0.017 | vemurafenib -0.041 | [5] -0.011 | [6] 0.019 | givinostat -0.029 | barasertib -0.009

PCYT2 isoform 3 (UniProt Q99447)
inactive: [1] -0.02 | [2] 0.005 | [3] 0.011 | [4] 0.032 | Nexturastat A -0.082 | vemurafenib 0.011 | [5] 0.034 | [6] -0.059 | givinostat -0.067 | barasertib 0.015

PCMT1 isoform 2 (UniProt P22061)
inactive: [1] 0.047 | [2] -0.025 | [3] -0.01 | [4] 0.048 | Nexturastat A -0.098 | vemurafenib 0.032 | [5] 0 | [6] -0.012 | givinostat -0.041 | barasertib 0.009

PDXP (UniProt Q96GD0)
inactive: [1] -0.021 | [2] -0.01 | [3] 0.03 | [4] -0.011 | Nexturastat A -0.113 | vemurafenib -0.01 | [5] -0.004 | [6] -0.062 | givinostat -0.03 | barasertib 0.015

PANK4 (UniProt Q9NVE7)
inactive: [1] -0.006 | [2] -0.027 | [3] -0.035 | [4] -0.004 | Nexturastat A -0.054 | vemurafenib -0.008 | [5] 0.02 | [6] 0.035 | givinostat -0.02 | barasertib 0.027

PDCD11 (UniProt Q14690)
inactive: [1] -0.002 | [2] -0.022 | [3] 0.175 | [4] -0.069 | Nexturastat A -0.195 | vemurafenib -0.044 | [5] -0.099 | [6] -0.264 | givinostat 0.033 | barasertib 0.108

PCSK9 (UniProt Q8NBP7)
inactive: [1] 0.126 | [2] -0.045 | [3] 0.002 | [4] -0.036 | Nexturastat A 0.048 | vemurafenib -0.119 | [5] -0.053 | [6] 0.073 | givinostat 0.091 | barasertib -0.075

PDXK (UniProt O00764)
inactive: [1] -0.05 | [2] 0.008 | [3] 0.118 | [4] 0.057 | Nexturastat A -0.049 | vemurafenib 0.005 | [5] 0.007 | [6] -0.034 | givinostat -0.022 | barasertib 0.008

PASK (UniProt Q96RG2)
inactive: [1] 0.025 | [2] 0.028 | [3] 0.069 | [4] 0.012 | Nexturastat A -0.074 | vemurafenib -0.061 | [5] 0.089 | [6] -0.094 | givinostat -0.004 | barasertib 0.011

PDCL (UniProt Q13371)
inactive: [1] -0.001 | [2] 0.057 | [3] -0.046 | [4] 0 | Nexturastat A -0.038 | vemurafenib 0 | [5] -0.034 | [6] 0.021 | givinostat 0.042 | barasertib 0.115

PANX1 (UniProt Q96RD7)
inactive: [1] 0.027 | [2] -0.012 | [3] -0.001 | [4] 0.013 | Nexturastat A -0.126 | vemurafenib -0.04 | [5] 0.019 | [6] -0.003 | givinostat -0.021 | barasertib -0.034

PARS2 (UniProt Q7L3T8)
inactive: [1] 0.037 | [2] -0.031 | [3] -0.021 | [4] -0.011 | Nexturastat A 0.011 | vemurafenib 0.004 | [5] -0.046 | [6] 0.033 | givinostat 0.019 | barasertib -0.019

PAXX (UniProt Q9BUH6)
inactive: [1] -0.012 | [2] 0.051 | [3] 0.056 | [4] 0.016 | Nexturastat A 0.025 | vemurafenib -0.02 | [5] -0.027 | [6] -0.058 | givinostat -0.013 | barasertib -0.005

PAXIP1 (UniProt Q6ZW49)
inactive: [1] -0.157 | [2] 0.06 | [3] -0.013 | [4] 0.062 | Nexturastat A 0.061 | vemurafenib 0.079 | [5] -0.038 | [6] 0.127 | givinostat 0.032 | barasertib -0.092

PCBD2 (UniProt Q9H0N5)
inactive: [1] 0.01 | [2] 0.046 | [3] 0.003 | [4] 0.005 | Nexturastat A -0.062 | vemurafenib -0.048 | [5] -0.033 | [6] -0.03 | givinostat 0.01 | barasertib 0.005

PCLAF (UniProt Q15004)
inactive: [1] -0.119 | [2] 0.031 | [3] -0.014 | [4] -0.009 | Nexturastat A -0.002 | vemurafenib -0.097 | [5] -0.083 | [6] 0.115 | givinostat -0.061 | barasertib -0.007

PANK2 (UniProt Q9BZ23)
inactive: [1] 0.074 | [2] -0.031 | [3] -0.065 | [4] -0.098 | Nexturastat A -0.029 | vemurafenib 0.016 | [5] 0.012 | [6] 0.003 | givinostat 0.043 | barasertib 0.031

PCYT1B (UniProt Q9Y5K3)
inactive: [1] 0.007 | [2] 0.022 | [3] 0.011 | [4] 0.034 | Nexturastat A -0.06 | vemurafenib 0.022 | [5] 0.049 | [6] -0.031 | givinostat 0.038 | barasertib 0.048

PALM3 (UniProt A6NDB9)
inactive: [1] -0.031 | [2] 0 | [3] -0.029 | [4] 0.046 | Nexturastat A 0.066 | vemurafenib 0.086 | [5] -0.009 | [6] -0.007 | givinostat 0 | barasertib 0.005

PDLIM5 (UniProt Q96HC4)
inactive: [1] 0.011 | [2] -0.054 | [3] 0.014 | [4] 0.065 | Nexturastat A -0.04 | vemurafenib 0.018 | [5] -0.003 | [6] -0.043 | givinostat 0.001 | barasertib -0.008

PCM1 isoform 5 (UniProt Q15154)
inactive: [1] -0.127 | [2] -0.015 | [3] -0.077 | [4] -0.017 | Nexturastat A 0.287 | vemurafenib -0.075 | [5] -0.019 | [6] 0.089 | givinostat 0.083 | barasertib -0.011

PAGE5 (UniProt Q96GU1)
inactive: [1] -0.028 | [2] 0.038 | [3] -0.005 | [4] 0.04 | Nexturastat A -0.047 | vemurafenib 0.177 | [5] -0.006 | [6] -0.032 | givinostat -0.103 | barasertib 0.024

PCK2 (UniProt Q16822)
inactive: [1] -0.002 | [2] -0.064 | [3] -0.008 | [4] 0.045 | Nexturastat A -0.065 | vemurafenib -0.006 | [5] 0.002 | [6] 0.014 | givinostat -0.13 | barasertib 0.011

PACSIN2 (UniProt Q9UNF0)
inactive: [1] 0.012 | [2] -0.066 | [3] -0.006 | [4] -0.031 | Nexturastat A -0.007 | vemurafenib 0.048 | [5] 0.016 | [6] 0.091 | givinostat 0.115 | barasertib 0.065

PABPC4 isoform 3 (UniProt Q13310)
inactive: [1] 0.052 | [2] 0.015 | [3] -0.031 | [4] 0.026 | Nexturastat A 0.122 | vemurafenib 0.015 | [5] 0.009 | [6] 0.042 | givinostat -0.008 | barasertib -0.035

Quoted from the results shown (9 entries):
PANK2 (UniProt Q9BZ23)
inactive: [1] 0.074 | [2] -0.031 | [3] -0.065 | [4] -0.098 | Nexturastat A -0.029 | vemurafenib 0.016 | [5] 0.012 | [6] 0.003 | givinostat 0.043 | barasertib 0.031

PCYT1B (UniProt Q9Y5K3)
inactive: [1] 0.007 | [2] 0.022 | [3] 0.011 | [4] 0.034 | Nexturastat A -0.06 | vemurafenib 0.022 | [5] 0.049 | [6] -0.031 | givinostat 0.038 | barasertib 0.048

PALM3 (UniProt A6NDB9)
inactive: [1] -0.031 | [2] 0 | [3] -0.029 | [4] 0.046 | Nexturastat A 0.066 | vemurafenib 0.086 | [5] -0.009 | [6] -0.007 | givinostat 0 | barasertib 0.005

PDLIM5 (UniProt Q96HC4)
inactive: [1] 0.011 | [2] -0.054 | [3] 0.014 | [4] 0.065 | Nexturastat A -0.04 | vemurafenib 0.018 | [5] -0.003 | [6] -0.043 | givinostat 0.001 | barasertib -0.008

PCM1 isoform 5 (UniProt Q15154)
inactive: [1] -0.127 | [2] -0.015 | [3] -0.077 | [4] -0.017 | Nexturastat A 0.287 | vemurafenib -0.075 | [5] -0.019 | [6] 0.089 | givinostat 0.083 | barasertib -0.011

PAGE5 (UniProt Q96GU1)
inactive: [1] -0.028 | [2] 0.038 | [3] -0.005 | [4] 0.04 | Nexturastat A -0.047 | vemurafenib 0.177 | [5] -0.006 | [6] -0.032 | givinostat -0.103 | barasertib 0.024

PCK2 (UniProt Q16822)
inactive: [1] -0.002 | [2] -0.064 | [3] -0.008 | [4] 0.045 | Nexturastat A -0.065 | vemurafenib -0.006 | [5] 0.002 | [6] 0.014 | givinostat -0.13 | barasertib 0.011

PACSIN2 (UniProt Q9UNF0)
inactive: [1] 0.012 | [2] -0.066 | [3] -0.006 | [4] -0.031 | Nexturastat A -0.007 | vemurafenib 0.048 | [5] 0.016 | [6] 0.091 | givinostat 0.115 | barasertib 0.065

PABPC4 isoform 3 (UniProt Q13310)
inactive: [1] 0.052 | [2] 0.015 | [3] -0.031 | [4] 0.026 | Nexturastat A 0.122 | vemurafenib 0.015 | [5] 0.009 | [6] 0.042 | givinostat -0.008 | barasertib -0.035

(further entries)

PCNA (UniProt P12004)
inactive: [1] 0.014 | [2] 0.028 | [3] -0.006 | [4] 0.051 | Nexturastat A -0.083 | vemurafenib 0.007 | [5] 0.006 | [6] -0.076 | givinostat -0.056 | barasertib 0.008

PDS5B (UniProt Q9NTI5)
inactive: [1] -0.088 | [2] 0.086 | [3] 0.176 | [4] 0.109 | Nexturastat A -0.011 | vemurafenib -0.032 | [5] 0.32 | [6] -0.058 | givinostat 0.135 | barasertib 0.047

PARL (UniProt Q9H300)
inactive: [1] 0 | [2] 0.025 | [3] 0.02 | [4] 0.002 | Nexturastat A -0.098 | vemurafenib -0.014 | [5] 0.057 | [6] -0.036 | givinostat 0.068 | barasertib -0.022

PDIA5 (UniProt Q14554)
inactive: [1] 0.029 | [2] -0.013 | [3] -0.041 | [4] -0.01 | Nexturastat A 0.135 | vemurafenib -0.022 | [5] -0.042 | [6] 0.012 | givinostat -0.002 | barasertib -0.033

PDCD10 (UniProt Q9BUL8)
inactive: [1] -0.119 | [2] -0.003 | [3] 0.036 | [4] 0.063 | Nexturastat A 0.007 | vemurafenib 0.033 | [5] 0.063 | [6] -0.087 | givinostat 0.016 | barasertib 0.012
